Measured values published in patent US20250312407A1 (AJINOMOTO CO., INC., priority 2019, published 2025).

Assays:
Conditions in all cases: whole synthesis
[1] = general procedure: Fmoc solid-phase peptide synthesis; Fmoc-Gly-Wang resin
[2] = general procedure: Fmoc solid-phase peptide synthesis; Fmoc-Leu-Wang resin
[3] = general procedure: Fmoc solid-phase peptide synthesis; Fmoc-Lys (Boc)-Wang resin

Row | Sequence | final purity (method not given) [1] [%] | final purity (method not given) [2] [%] | also measured
1 | IVTQTMKG (Designed peptide) | 99.3 | – | –
2 | IVTQTMKGL (Designed peptide) | – | 99.4 | –
3 | LIVTQTMK (Designed peptide) | – | – | final purity (method not given) [3]: 99.0%
4 | LIVTQTMKG (Designed peptide) | 99.3 | – | –
5 | LIVTQTMKGL (Designed peptide) | – | 98.3 | –
6 | VTQTMKGL (Designed peptide) | – | 99.5 | –

Where a sequence shows no end group, the ends are not given.
